Data reported in PMC7851937.
These are yes or no findings as the source states them, for the method shown. In cells and extracts the contact can be indirect. Some results given as binding are weak or reduced against the parent protein; the word gives no strength.

The chains behind the UniProt entries cited, without tags or fusion partners. Where a name states a change or a piece, a line headed by the entry shows the natural chain unless it says otherwise.
UniProt P08670: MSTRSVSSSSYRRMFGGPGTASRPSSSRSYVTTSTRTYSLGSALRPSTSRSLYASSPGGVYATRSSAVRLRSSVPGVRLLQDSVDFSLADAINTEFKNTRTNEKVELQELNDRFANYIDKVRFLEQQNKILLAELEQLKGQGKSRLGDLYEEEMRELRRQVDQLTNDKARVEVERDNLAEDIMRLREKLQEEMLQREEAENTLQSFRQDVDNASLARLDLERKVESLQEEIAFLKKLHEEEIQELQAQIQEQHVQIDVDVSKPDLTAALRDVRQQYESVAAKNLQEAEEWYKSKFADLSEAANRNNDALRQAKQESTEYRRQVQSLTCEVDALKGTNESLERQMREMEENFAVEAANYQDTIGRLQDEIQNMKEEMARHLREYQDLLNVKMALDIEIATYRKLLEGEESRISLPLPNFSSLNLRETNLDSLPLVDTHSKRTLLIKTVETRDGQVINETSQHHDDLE
UniProt Q86TM6: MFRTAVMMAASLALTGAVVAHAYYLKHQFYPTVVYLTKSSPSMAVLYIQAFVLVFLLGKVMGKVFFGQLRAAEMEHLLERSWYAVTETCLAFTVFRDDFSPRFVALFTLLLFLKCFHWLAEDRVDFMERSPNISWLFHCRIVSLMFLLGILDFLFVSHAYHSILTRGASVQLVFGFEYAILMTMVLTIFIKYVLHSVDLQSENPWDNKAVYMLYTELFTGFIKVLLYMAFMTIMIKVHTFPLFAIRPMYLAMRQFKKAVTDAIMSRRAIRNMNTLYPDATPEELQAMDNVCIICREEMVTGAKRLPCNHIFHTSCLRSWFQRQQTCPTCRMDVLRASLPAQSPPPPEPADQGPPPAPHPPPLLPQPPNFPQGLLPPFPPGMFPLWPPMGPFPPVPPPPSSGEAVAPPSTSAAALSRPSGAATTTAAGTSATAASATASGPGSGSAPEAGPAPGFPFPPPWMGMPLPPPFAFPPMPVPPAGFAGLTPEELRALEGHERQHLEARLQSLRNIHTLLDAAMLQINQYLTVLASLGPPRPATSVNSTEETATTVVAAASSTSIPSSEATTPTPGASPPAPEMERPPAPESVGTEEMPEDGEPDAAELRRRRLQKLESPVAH

Legend:
Flag-Vimentin (human) = Flag-Vimentin (human) (UniProt P08670); test: co-IP; HEK293 cells cotransfected with Flag-Vimentin and Myc-HRD1 or Myc-HRD1(C291S), MG132 10 μM; whole-cell lysates immunoprecipitated with anti-Flag, immunoblot
Myc-HRD1 (human) = Myc-HRD1 (human) (UniProt Q86TM6); test: co-IP; HEK293 cells cotransfected with Myc-HRD1 and Flag-Vimentin, MG132 10 μM; NP-40 whole-cell lysates immunoprecipitated with anti-Myc, immunoblot

With “Myc-HRD1(C291S) (from UniProt Q86TM6 1-617) (enzyme)” the binding (Flag-Vimentin (human)) was “no binding”.

With “Myc-HRD1 (from UniProt Q86TM6 1-617) (enzyme)” the binding (Flag-Vimentin (human)) was “binds”.

For “Flag-Vimentin (from UniProt P08670 1-466)”, the binding (Myc-HRD1 (human)) was “binds”.
